Experimental data reported in PMC8693860.
Results are given in words; binding and its absence hold for the method and conditions named. For part of these data: In cells and extracts the contact can be indirect. Some binding calls cover weakened binding; strength is not graded here. For part of these data: Sequences can lack the tags named with a protein.

Protein sequences, listed by entry. Tags and fused reporters are not part of them.
UniProt P53855: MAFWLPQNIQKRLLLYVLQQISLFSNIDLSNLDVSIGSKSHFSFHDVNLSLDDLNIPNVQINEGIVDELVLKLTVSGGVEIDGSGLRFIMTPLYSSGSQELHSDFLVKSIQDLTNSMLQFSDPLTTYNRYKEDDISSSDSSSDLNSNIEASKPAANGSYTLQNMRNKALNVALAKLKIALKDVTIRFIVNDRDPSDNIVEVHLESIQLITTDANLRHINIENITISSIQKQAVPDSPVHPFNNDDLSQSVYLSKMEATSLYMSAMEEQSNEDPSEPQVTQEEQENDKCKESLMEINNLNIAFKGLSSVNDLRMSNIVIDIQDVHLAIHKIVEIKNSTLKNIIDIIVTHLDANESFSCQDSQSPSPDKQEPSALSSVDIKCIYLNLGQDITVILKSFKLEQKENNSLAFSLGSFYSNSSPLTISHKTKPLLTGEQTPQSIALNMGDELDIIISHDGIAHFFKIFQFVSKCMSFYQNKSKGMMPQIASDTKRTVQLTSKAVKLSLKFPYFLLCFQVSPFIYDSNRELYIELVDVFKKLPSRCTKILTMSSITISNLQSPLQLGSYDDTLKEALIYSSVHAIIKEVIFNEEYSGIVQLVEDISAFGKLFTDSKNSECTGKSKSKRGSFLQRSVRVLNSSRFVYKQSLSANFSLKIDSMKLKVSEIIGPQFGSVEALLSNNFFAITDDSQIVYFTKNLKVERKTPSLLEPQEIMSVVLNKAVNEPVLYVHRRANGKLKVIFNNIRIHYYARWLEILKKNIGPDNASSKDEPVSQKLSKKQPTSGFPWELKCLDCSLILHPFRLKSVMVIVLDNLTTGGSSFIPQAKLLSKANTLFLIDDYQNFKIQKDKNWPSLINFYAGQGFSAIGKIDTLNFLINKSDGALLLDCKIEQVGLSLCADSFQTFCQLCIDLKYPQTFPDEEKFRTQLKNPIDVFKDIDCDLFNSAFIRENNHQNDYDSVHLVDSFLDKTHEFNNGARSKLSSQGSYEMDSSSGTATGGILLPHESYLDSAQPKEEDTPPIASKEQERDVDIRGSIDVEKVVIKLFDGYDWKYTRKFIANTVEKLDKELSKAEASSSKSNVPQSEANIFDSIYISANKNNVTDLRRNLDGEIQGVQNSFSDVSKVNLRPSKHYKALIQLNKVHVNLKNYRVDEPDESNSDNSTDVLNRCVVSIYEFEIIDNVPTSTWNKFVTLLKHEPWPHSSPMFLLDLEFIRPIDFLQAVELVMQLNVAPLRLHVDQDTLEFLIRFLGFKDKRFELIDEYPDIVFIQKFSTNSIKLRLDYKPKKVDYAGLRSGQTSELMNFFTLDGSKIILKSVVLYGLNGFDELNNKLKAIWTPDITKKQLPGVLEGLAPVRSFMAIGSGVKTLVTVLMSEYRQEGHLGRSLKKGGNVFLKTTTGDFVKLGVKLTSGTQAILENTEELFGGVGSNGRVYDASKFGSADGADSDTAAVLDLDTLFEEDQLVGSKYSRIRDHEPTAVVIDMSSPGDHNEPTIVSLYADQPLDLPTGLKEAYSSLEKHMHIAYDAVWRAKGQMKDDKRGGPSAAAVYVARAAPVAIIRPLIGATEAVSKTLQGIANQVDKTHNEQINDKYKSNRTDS

Assays:
[1] = molecular target: T1, Atg13^TOR_S^>^A (S379, S428 and S429 to alanine), not phosphorylated (S. cerevisiae) (UniProt Q06628); experiment: pull-down; Atg1 complexes assembled with Atg13 mutants or truncations, with or without ATP/Mg2+ (Figures S3H-S3M, not shown; bait not told); both purified
T1 sequence: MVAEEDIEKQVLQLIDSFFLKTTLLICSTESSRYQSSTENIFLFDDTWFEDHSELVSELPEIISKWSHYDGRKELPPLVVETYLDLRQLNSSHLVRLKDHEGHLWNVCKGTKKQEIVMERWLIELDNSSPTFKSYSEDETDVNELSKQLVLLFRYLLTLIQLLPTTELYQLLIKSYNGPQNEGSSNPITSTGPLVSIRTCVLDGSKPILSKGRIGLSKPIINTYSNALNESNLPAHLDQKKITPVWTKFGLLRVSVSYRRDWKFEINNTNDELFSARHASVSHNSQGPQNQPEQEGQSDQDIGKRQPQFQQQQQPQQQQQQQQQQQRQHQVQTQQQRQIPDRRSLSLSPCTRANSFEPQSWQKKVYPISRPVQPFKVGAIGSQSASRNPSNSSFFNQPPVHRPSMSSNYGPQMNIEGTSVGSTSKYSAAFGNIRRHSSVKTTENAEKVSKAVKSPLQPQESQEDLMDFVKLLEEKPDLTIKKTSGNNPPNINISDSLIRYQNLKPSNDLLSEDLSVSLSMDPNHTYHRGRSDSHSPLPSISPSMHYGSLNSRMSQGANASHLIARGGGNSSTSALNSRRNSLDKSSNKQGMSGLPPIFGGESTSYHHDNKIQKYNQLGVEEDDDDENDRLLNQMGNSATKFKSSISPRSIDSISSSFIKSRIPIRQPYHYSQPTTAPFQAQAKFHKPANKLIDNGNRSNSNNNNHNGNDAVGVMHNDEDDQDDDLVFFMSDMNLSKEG

[2] = molecular target: Atg2 (S. cerevisiae) (UniProt P53855); experiment: co-purification; recombinant complexes expressed together and purified by affinity, anion exchange and size exclusion chromatography (180 mM NaCl for complexes); SDS-PAGE
[3] = molecular target: T2, Atg12–Atg5 conjugate (S. cerevisiae) (UniProt P38316+Q12380); experiment: pull-down; Atg12–Atg5 conjugate immobilised on a StrepTactin column, sonicated bacterial lysate with Atg16 or Atg16-FLAG added, 10 CV wash (50 mM Tris-HCl pH 8.0, 200 mM NaCl), elution with desthiobiotin, then anion exchange and SEC; only the target purified
T2 sequence (chain, covalently conjugated to Atg5 | covalently conjugated to Atg12) 1: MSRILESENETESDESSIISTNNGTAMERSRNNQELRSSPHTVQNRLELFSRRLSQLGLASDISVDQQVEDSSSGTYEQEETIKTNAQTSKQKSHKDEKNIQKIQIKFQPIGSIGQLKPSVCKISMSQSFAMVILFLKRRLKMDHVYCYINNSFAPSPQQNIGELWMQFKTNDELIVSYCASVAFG
T2 sequence (chain, covalently conjugated to Atg5 | covalently conjugated to Atg12) 2: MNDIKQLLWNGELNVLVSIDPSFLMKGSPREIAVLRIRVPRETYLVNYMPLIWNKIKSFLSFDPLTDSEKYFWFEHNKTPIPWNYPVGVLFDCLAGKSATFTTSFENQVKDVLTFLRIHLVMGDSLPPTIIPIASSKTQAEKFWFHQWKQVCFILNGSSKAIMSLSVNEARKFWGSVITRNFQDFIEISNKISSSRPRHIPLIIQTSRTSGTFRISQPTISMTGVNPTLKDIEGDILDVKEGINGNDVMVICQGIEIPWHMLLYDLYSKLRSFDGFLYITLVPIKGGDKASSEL

B1: Atg17-Atg29-Atg31 complex, non-phosphorylated (complex, UniProt Q06410 1-417; Q12092 1-213; Q12421 1-196)
chain 1: MNEADVTKFVNNARKTLTDAQLLCSSANLRIVDIKKKLSSWQLSISKLNFLIVGLRQQGKFLYTILKEGIGTKLIQKQWNQAVLVVLVDEMKYWQYEITSKVQRLDGIVNELSISEKDDTDPSKLGDYISRDNVNLLNDKLKEVPVIERQIENIKLQYENMVRKVNKELIDTKLTDVTQKFQSKFGIDNLMETNVAEQFSRELTDLEKDLAEIMNSLTQHFDKTLLLQDKKIDNDEREELFKVVQGDDKELYNIFKTLHEVIDDVDKTILNLGQFLQAKIKEKTELHSEVSEIINDFNRNLEYLLIFKDISNLIDSFKNSCTQDIQTTKELCEFYDNFEESYGNLVLEAKRRKDVANRMKTILKDCEKQLQNLDAQDQEERQNFIAENGTYLPETIWPGKIDDFSSLYTLNYNVKNP
chain 2: MIMNSTNTVVYIKVKGRRPQGFLDPPKFEWNGTKERQLWTMVSNLNYSQDQIDWQNLSKIFETPEFFLKKRTYKLFAEHLELLQLQLEKKRDLEKYSNDQVNEGMSDLIHKYTPTLQNDNLLNVSASPLTTERQDSEEVETEVTNEALQHLQTSKILNIHKKTSDSENKPNDKLDKDGINKEMECGSSDDDLSSSLSVSKSALEEALMDRLQF
chain 3: MNVTVTVYDKNVKYRLEENIKNNKGPSNDDQPAYNNESKSTDGSDYAMFPTNIKYIFEDNNDELVDSSDAALTAGIDKVGDELENVIIVQLDESGSLEDITLISDQYELLSHRTNSLSLEENQMRTLSSHGDDKSNDEEEELSVDSDRFRVDSDIELDVISQFCDLSPFLRDLSLNDLIKLYVTQNEQLQMLSNSV
[1]
  binding: binds

B2: Atg18 (protein, UniProt P43601 1-500)
chain: MSDSSPTINFINFNQTGTCISLGTSKGFKIFNCEPFGKFYSEDSGGYAIVEMLFSTSLLALVGIGDQPALSPRRLRIINTKKHSIICEVTFPTSILSVKMNKSRLVVLLQEQIYIYDINTMRLLHTIETNPNPRGLMAMSPSVANSYLVYPSPPKVINSEIKAHATTNNITLSVGGNTETSFKRDQQDAGHSDISDLDQYSSFTKRDDADPTSSNGGNSSIIKNGDVIVFNLETLQPTMVIEAHKGEIAAMAISFDGTLMATASDKGTIIRVFDIETGDKIYQFRRGTYATRIYSISFSEDSQYLAVTGSSKTVHIFKLGHSMSNNKLDSDDSNMEEAAADDSSLDTTSIDALSDEENPTRLAREPYVDASRKTMGRMIRYSSQKLSRRAARTLGQIFPIKVTSLLESSRHFASLKLPVETNSHVMTISSIGSPIDIDTSEYPELFETGNSASTESYHEPVMKMVPIRVVSSDGYLYNFVMDPERGGDCLILSQYSILMD
[2]
  binding: binds

B3: Atg16 (untagged or C-terminally FLAG-tagged) (protein, UniProt Q03818 1-150)
chain: MGNFIITERKKAKEERSNPQTDSMDDLLIRRLTDRNDKEAHLNELFQDNSGAIGGNIVSHDDALLNTLAILQKELKSKEQEIRRLKEVIALKNKNTERLNDELISGTIENNVLQQKLSDLKKEHSQLVARWLKKTEKETEAMNSEIDGTK
[3]
  binding: binds
